Source: the supplement of paper PMC12067093, “Discovery and optimisation of a covalent ligand for TRIM25 and its application to targeted protein ubiquitination” (Chemical Science, 2025)
Some of the results follow.

compound: CC1Cc2ccccc2N1C(=O)C1CCCN(C1)C(=O)CCl (mixture of isomers) [TRIM25 ligand 11 (diastereomer mixture)]; assay: probe-labelled cysteine peptide fold change vs DMSO (competition) (log2 fold change); higher = less target engagement (more negative = stronger competition); conditions: 50 µM; THP-1; incubation time: 4 h
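Further: competitive chemoproteomic profiling in live THP-1 cells with an iodoacetamide desthiobiotin (IA-DTB) probe, comparing probe-labelled peptide intensities in compound-treated cells against DMSO-treated controls.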

Target | probe-labelled cysteine peptide fold change
HDAC6_Q9UBN7_752_GDPLGGCQVSPEGYAHLTHLLMGLASGR (UniProt Q9UBN7) | -0.232
HGH1_Q9BTY7_227_NCCFEHR (UniProt Q9BTY7) | 0.166
HGH1_Q9BTY7_138_EPAPCAALMAALAAAEPADSGLER (UniProt Q9BTY7) | -0.0514
HELLS_Q9NRZ9_169_ENEDENSSSTNLCVEDLQK (UniProt Q9NRZ9) | -0.275
HAUS6_Q7Z4H7_32_EHLWMYLQALGFEPGPATIACGK (UniProt Q7Z4H7) | -0.0905
HIP1_O00291_430_QQAADDCEFLR (UniProt O00291) | -0.194
HERC2_O95714_914_ALSALLPCAVSGNEVNISPGRR (UniProt O95714) | -0.0151
HERC1_Q15751_1991_LFSLLSDCMWETPIAQAK (UniProt Q15751) | -0.277
HAUS7_Q99871_348_KQQGEQICWGGSSSVMSLATK (UniProt Q99871) | -0.293
HEATR5B_Q9P2D3_1262_IINLCENADQAHFDLALAR (UniProt Q9P2D3) | 0.001
HK2_P52789_628_ASGCEGEDVVTLLK (UniProt P52789) | 0.0614
HEATR5B_Q9P2D3_1166_KLCSDIHDTLGHMLSSLAVEK (UniProt Q9P2D3) | -0.337
HDAC7_Q8WUI4_533_HQCSCGDNSR (UniProt Q8WUI4) | 0.18
HELZ_P42694_199_YGAQCTSAHSQEELAEWQK (UniProt P42694) | 0.129
HEATR3_Q7Z4Q2_585_NIGCFLLEVTTK (UniProt Q7Z4Q2) | 0.0683
HEATR1_Q9H583_1263_QLILSCLLNICQK (UniProt Q9H583) | -0.21
HK1_P19367_256_MCINTEWGAFGDDGSLEDIRTEFDREIDRGSLNPGK (UniProt P19367) | -0.146
HERC2_O95714_4517_DESGANRDCYLLSPAAR (UniProt O95714) | 0.256
HERC2_O95714_664_CGSQFSIALTK (UniProt O95714) | -0.00167

Target | probe-labelled cysteine peptide fold change
HGS_O14964_185+190_ACGQIFCGK (UniProt O14964) | -0.197
HDAC3_O15379_94_SLNAFNVGDDCPVFPGLFEFCSR (UniProt O15379) | -0.0552
HK1_P19367_158_KLPVGFTFSFPCQQSK (UniProt P19367) | -0.0706
HDAC2_Q92769_13_VCYYYDGDIGNYYYGQGHPMK (UniProt Q92769) | 0.164
HLA-A_P01891_363_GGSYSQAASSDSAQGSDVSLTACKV (UniProt P01891) | -0.0625
HK1_P19367_886_CNVSFLLSEDGSGK (UniProt P19367) | 0.0454
HK2_P52789_794_FLSQIESDCLALLQVR (UniProt P52789) | 0.17
HECTD3_Q5T447_744_VCGDPEVTVDALR (UniProt Q5T447) | 0.0766
HK2_P52789_813_AILQHLGLESTCDDSIIVK (UniProt P52789) | 0.148
HDAC9_Q9UKV0_534_SDSSACVDDTLGQVGAVK (UniProt Q9UKV0) | -0.169
HAUS6_Q7Z4H7_662_VISDCECVPQK (UniProt Q7Z4H7) | 0.059
HINT1_P49773_38_IIFEDDRCLAFHDISPQAPTHFLVIPK (UniProt P49773) | -0.249
HIRIP3_Q9BW71_86_RPPTPCSDPER (UniProt Q9BW71) | -0.00418
HLA-DRB5_Q30154_146_TQTLQHHNLLVCSVNGFYPGSIEVR (UniProt Q30154) | -0.111
HELB_Q8NG08_379_KPPWHLCVDVEK (UniProt Q8NG08) | -0.0158
HDAC1_Q13547_284_CVEFVK (UniProt Q13547) | 0.0441
HK3_P52790_409_AAQLCAAALAAVLSCLQHSR (UniProt P52790) | -0.184
HIRIP3_Q9BW71_449+450_LLGSCCSHK (UniProt Q9BW71) | -0.0205
